# For some assays here: Expression grades refer to the transcript from which the peptide derives; gene names, where given, were looked up from the sequence.
# How the values were obtained:
# Design in all cases: species or system human
# [1] = test system: HLA-A*24 molecules of primary tumors; experiment: Identification and relative LC-MS quantitation of HLA-A*24 tumor-associated peptides presented on tissue samples (XPRESIDENT presentation profiles); settings: for ENTITIES: Table 9A: selected HLA-A*24-binding tumor-associated peptides, cancer entities on which the peptide was found presented; for Peptide Presentation on cancer entities: Table 9B: selected HLA-A*24 peptides, presentation on additional cancer entities
# [2] = test system: source genes of selected peptides; experiment: Expression profiling of source genes by in-house RNAseq, tumor vs normal tissues (target coverage); settings: share of tumors with more than 1.5-fold higher expression than highest relevant normal tissue, in-house RNASeq
# [3] = test system: source genes of selected peptides; experiment: Target coverage of source genes in tumor entities based on TCGA Research Network data; settings: over-expressed = more than 2-fold above the highest 75% percentile of normal organs
Substance,ENTITIES [1],further results
96 (YYTQYSQTI; listed as Homo sapiens) [compound 96],"HCC, NSCLC, GC, GB",
97 (TYTFLKETF; listed as Homo sapiens) [compound 97],"PCA, HCC, NSCLC, GB",
98 (VFPRLHNVLF; listed as Homo sapiens) [compound 98],"HCC, NSCLC, GC",
99 (QYILAVPVL; listed as Homo sapiens) [compound 99],"NSCLC, GC, GB, PCA",
101 (IYIPVLPPHL; listed as Homo sapiens) [compound 101],"HCC, NSCLC",
102 (VYPFENFEF; listed as Homo sapiens) [compound 102],"GC, NSCLC",
103 (NYIPVKNGKQF; listed as Homo sapiens) [compound 103],"PCA, HCC, NSCLC, GB",
104 (SYLTWHQQI; listed as Homo sapiens) [compound 104],"PCA, HCC, NSCLC",
107 (KYFPYLVVI; listed as Homo sapiens) [compound 107],"HCC, NSCLC, GC",
108 (PYLVVIHTL; listed as Homo sapiens) [compound 108],,Peptide Presentation on cancer entities [1]: NSCLC
109 (LFITGGQFF; listed as Homo sapiens) [compound 109],"HCC, NSCLC, GC",
111 (VYVQILQKL; listed as Homo sapiens) [compound 111],"GC, HCC, NSCLC",
112 (IYNFVESKL; listed as Homo sapiens) [compound 112],"NSCLC, GC",
114 (QYLDGTWSL; listed as Homo sapiens) [compound 114],"NSCLC, GC, GB",
115 (RYLNKSFVL; listed as Homo sapiens) [compound 115],"NSCLC, GC, GB, PCA, HCC",
116 (AYVIAVHLF; listed as Homo sapiens) [compound 116],"GB, PCA, HCC, NSCLC",
117 (IYLSDLTYI; listed as Homo sapiens) [compound 117],"HCC, NSCLC, GC, PCA",
118 (KYLNSVQYI; listed as Homo sapiens) [compound 118],"HCC, NSCLC, GC, GB, PCA",
119 (VYRVYVTTF; listed as Homo sapiens) [compound 119],"NSCLC, GC",
120 (GYIEHFSLW; listed as Homo sapiens) [compound 120],"HCC, NSCLC, GC",
121 (RYGLPAAWSTF; listed as Homo sapiens) [compound 121],"HCC, NSCLC, GC",
122 (EYQARIPEF; listed as Homo sapiens) [compound 122],"NSCLC, GC, GB, PCA, HCC",

Substance,ENTITIES [1],further results
126 (PYDPALGSPSRLF; listed as Homo sapiens) [compound 126],"NSCLC, GC, PCA, HCC",
127 (QYFTGNPLF; listed as Homo sapiens) [compound 127],"NSCLC, GC, GB, RCC, PCA",
131 (EYLDRIGQLFF; listed as Homo sapiens) [compound 131],"NSCLC, GC, RCC, GB, PCA, HCC",
132 (RYPALFPVL; listed as Homo sapiens) [compound 132],"HCC, NSCLC, GC, GB, PCA",Peptide Presentation on cancer entities [1]: RCC
133 (KYLEDMKTYF; listed as Homo sapiens) [compound 133],"HCC, NSCLC, GC, GB",
134 (AYIPTPIYF; listed as Homo sapiens) [compound 134],"PCA, NSCLC, GB",
135 (VYEAMVPLF; listed as Homo sapiens) [compound 135],"GC, NSCLC",Peptide Presentation on cancer entities [1]: HCC
137 (EYLHNCSYF; listed as Homo sapiens) [compound 137],"GC, PCA, HCC, NSCLC",
138 (VYNAVSTSF; listed as Homo sapiens) [compound 138],"NSCLC, GC",
139 (IFGIFPNQF; listed as Homo sapiens) [compound 139],"PCA, NSCLC",
140 (RYLINSYDF; listed as Homo sapiens) [compound 140],,Peptide Presentation on cancer entities [1]: NSCLC
142 (VYVDDIYVI; listed as Homo sapiens) [compound 142],"NSCLC, GC",
143 (KYIFQLNEI; listed as Homo sapiens) [compound 143],"GB, NSCLC",
146 (NYYERIHAL; listed as Homo sapiens) [compound 146],,Peptide Presentation on cancer entities [1]: NSCLC
147 (LYLAFPLAF; listed as Homo sapiens) [compound 147],"NSCLC, GC, PCA, HCC",
148 (SYGTVSQIF; listed as Homo sapiens) [compound 148],"PCA, HCC, NSCLC, GC, GB",Peptide Presentation on cancer entities [1]: CRC
149 (SYGTVSQI; listed as Homo sapiens) [compound 149],"HCC, NSCLC, GB",
150 (IYITRQFVQF; listed as Homo sapiens) [compound 150],"PCA, HCC, NSCLC, GB",
151 (AYISGLDVF; listed as Homo sapiens) [compound 151],"HCC, NSCLC, PCA",
152 (KFFDDLGDELLF; listed as Homo sapiens) [compound 152],,Peptide Presentation on cancer entities [1]: NSCLC
153 (VYVPFGGKSMITF; listed as Homo sapiens) [compound 153],NSCLC,
154 (VYGVPTPHF; listed as Homo sapiens) [compound 154],"GB, NSCLC",

Substance,ENTITIES [1],further results
155 (IYKWITDNF; listed as Homo sapiens) [compound 155],"HCC, NSCLC, GC, GB",Peptide Presentation on cancer entities [1]: PCA
156 (YYMELTKLLL; listed as Homo sapiens) [compound 156],"NSCLC, GC, HCC",
157 (DYIPASGFALF; listed as Homo sapiens) [compound 157],"NSCLC, GB",
158 (IYEETRGVLKVF; listed as Homo sapiens) [compound 158],"HCC, NSCLC, GC",
159 (IYEETRGVL; listed as Homo sapiens) [compound 159],"HCC, NSCLC",
160 (RYGDGGSSF; listed as Homo sapiens) [compound 160],"PCA, NSCLC, GC",
163 (RYLTISNLQF; listed as Homo sapiens) [compound 163],NSCLC,
165 (EYFTPLLSGQF; listed as Homo sapiens) [compound 165],NSCLC,
166 (FYTLPFHLI; listed as Homo sapiens) [compound 166],"HCC, NSCLC",
168 (RYLEAALRL; listed as Homo sapiens) [compound 168],"NSCLC, GC, GB, PCA, HCC",
169 (NYITGKGDVF; listed as Homo sapiens) [compound 169],"NSCLC, PCA",
170 (QYPFHVPLL; listed as Homo sapiens) [compound 170],"GC, PCA, HCC, NSCLC",
171 (NYEDHFPLL; listed as Homo sapiens) [compound 171],,Peptide Presentation on cancer entities [1]: NSCLC
175 (LYSPVPFTL; listed as Homo sapiens) [compound 175],"GB, NSCLC",
176 (FYINGQYQF; listed as Homo sapiens) [compound 176],"GB, PCA, HCC, NSCLC, GC",
177 (VYFKAGLDVF; listed as Homo sapiens) [compound 177],"PCA, NSCLC",
178 (NYSSAVQKF; listed as Homo sapiens) [compound 178],"PCA, HCC, NSCLC, GB",
179 (TYIPVGLGRLL; listed as Homo sapiens) [compound 179],"NSCLC, GC",
239: peptide found in LRBA (gene looked up) (VYAIFRILL; listed as Homo sapiens) [compound 239],,"Target coverage, over-expression of source gene, AML ([2]; AML (N = 7)): I (<19% over-expression = I); Target coverage, over-expression of source gene, BRCA ([2]; BRCA (N = 10)): II (20-49% = II); Target coverage, over-expression of source gene, CLL ([2]; CLL (N = 10)): I (<19% over-expression = I); Target coverage, over-expression of source gene, CRC ([2]; CRC (N = 20)): I (<19% over-expression = I); Target coverage, over-expression of source gene, GB ([2]; GB (N = 24)): I (<19% over-expression = I); Target coverage, over-expression of source gene, HCC ([2]; HCC (N = 15)): I (<19% over-expression = I); Target coverage, over-expression of source gene, OC ([2]; OC (N = 12)): I (<19% over-expression = I); Target coverage, over-expression of source gene, OSCAR ([2]; OSCAR (N = 11)): I (<19% over-expression = I); Target coverage, over-expression of source gene, PC ([2]; PC (N = 26)): I (<19% over-expression = I); Target coverage, over-expression of source gene, RCC ([2]; RCC (N = 10)): I (<19% over-expression = I); Target coverage, over-expression of source gene, SCLC ([2]; SCLC (N = 10)): II (20-49% = II); Target coverage, over-expression of source gene, pNSCLC ([2]; pNSCLC (N = 11)): I (<19% over-expression = I)"
396: peptide found in GRIK3 (gene looked up) (YYHFIFTTL; listed as Homo sapiens) [compound 396],,"Target coverage, over-expression category of source gene, LGG (N = 534) ([3]; Lower grade glioma): A (>=50% of tumors above the cutoff); Target coverage, over-expression category of source gene, PCPG (N = 184) ([3]; Pheochromocytoma and paraganglioma): B (>=20% of tumors above the cutoff, but <50%)"
